Laboratory results reported in patent publication US20220389230A1, “BLAST FURNACE SLAG-TYPE PAINT” (FUKKO CO., LTD., priority 2019, published 2022).
Read-outs that look alike come from different tables or passages of the source.

Assays:
[1] = Corrosiveness of alkaline substances to aluminum, change in appearance after 24 hours; set-up: key: No change; ?: Slight discoloration; x: Discoloration; xx: Dissolution
Protocol: For comparison with the aqueous solution shown in Table 3, a slurry liquid obtained by adding 10 parts by weight of water to 20 parts by weight of ordinary Portland cement was allowed to contact with an aluminum plate (A1050) not subjected to the surface treatment and an aluminum sash frame coated with a sulfuric acid anodized film at the spot, and a change in the appearance after 24 hours was observed.

[2] = as above; set-up: key: No change; ?: Slight discoloration; x: Discoloration; xx: Dissolution; remark: listed apart in the source
[3] = spot contact, appearance after 24 hours

Compound	Corrosiveness: Aluminum plate (A1050) (no surface treatment) [1]	Corrosiveness: Aluminum sash frame (with anodized film) [2]	Corrosiveness: Aluminum plate (A1050) (no surface treatment) [1, 3]	Corrosiveness: Aluminum sash frame (with anodized film) [2, 3]
O=C([O-])[O-].[K+].[K+] [Potassium carbonate]	x	–	–	–
[Ca+2].[OH-].[OH-] [Calcium hydroxide]	x	x	–	–
[Na+].[OH-] [Sodium hydroxide]	–	–	xx	xx
[K+].[OH-] [Potassium hydroxide]	xx	xx	–	–
N [ammonia]	–	–	x	o
O=C([O-])CC(O)(CC(=O)[O-])C(=O)[O-].[Na+].[Na+].[Na+] [Sodium citrate]	–	–	o	o
O=C([O-])[O-].[Na+].[Na+] [sodium carbonate]	–	o	–	–
